Where two headings read alike, the source gives them in different places. Results are given in words; binding and its absence hold for the method and conditions named. In cells and extracts the contact can be indirect. Some binding calls cover weakened binding; strength is not graded here.
Key:
[1] = target: chaperonin 60 (CH60), cell surface / plasma membrane-associated (human (endogenous in RPMI8226)) (UniProt P10809); experiment: pull-down; streptavidin-agarose coprecipitation of biotinylated CH60 (labelled via biotinylated MBP-PTR1) from gel-filtered RPMI8226 membrane fractions; binding buffer 150 mM NaCl, 20 mM Tris-HCl, 1 mM EDTA, resin blocked with 1% BSA, overnight at 4°C; immunoblot; competition control with excess non-biotinylated MBP-PTR1
[2] = target: chaperonin 60 (CH60), cell surface / plasma membrane-associated (human (endogenous in RPMI8226)) (UniProt P10809); experiment: as above; remark: listed apart in the source

Sequences of proteins named here, by UniProt entry; tags and fusion partners are left off. Residues count along the entry.
UniProt P10809, residues 27-573: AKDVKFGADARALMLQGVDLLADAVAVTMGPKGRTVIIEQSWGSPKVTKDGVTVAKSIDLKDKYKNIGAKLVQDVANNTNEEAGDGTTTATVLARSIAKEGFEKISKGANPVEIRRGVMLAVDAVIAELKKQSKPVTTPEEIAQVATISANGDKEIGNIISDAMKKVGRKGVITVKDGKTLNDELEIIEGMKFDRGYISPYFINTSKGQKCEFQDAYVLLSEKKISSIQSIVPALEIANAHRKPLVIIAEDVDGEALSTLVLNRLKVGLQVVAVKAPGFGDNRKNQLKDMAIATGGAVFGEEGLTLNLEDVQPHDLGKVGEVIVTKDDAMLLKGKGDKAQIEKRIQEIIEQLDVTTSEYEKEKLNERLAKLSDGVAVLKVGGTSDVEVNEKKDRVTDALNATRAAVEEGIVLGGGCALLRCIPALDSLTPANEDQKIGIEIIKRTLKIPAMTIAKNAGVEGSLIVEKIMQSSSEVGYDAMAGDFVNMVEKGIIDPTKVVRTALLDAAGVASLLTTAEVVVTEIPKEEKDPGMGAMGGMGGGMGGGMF
UniProt O00206, residues 24-839: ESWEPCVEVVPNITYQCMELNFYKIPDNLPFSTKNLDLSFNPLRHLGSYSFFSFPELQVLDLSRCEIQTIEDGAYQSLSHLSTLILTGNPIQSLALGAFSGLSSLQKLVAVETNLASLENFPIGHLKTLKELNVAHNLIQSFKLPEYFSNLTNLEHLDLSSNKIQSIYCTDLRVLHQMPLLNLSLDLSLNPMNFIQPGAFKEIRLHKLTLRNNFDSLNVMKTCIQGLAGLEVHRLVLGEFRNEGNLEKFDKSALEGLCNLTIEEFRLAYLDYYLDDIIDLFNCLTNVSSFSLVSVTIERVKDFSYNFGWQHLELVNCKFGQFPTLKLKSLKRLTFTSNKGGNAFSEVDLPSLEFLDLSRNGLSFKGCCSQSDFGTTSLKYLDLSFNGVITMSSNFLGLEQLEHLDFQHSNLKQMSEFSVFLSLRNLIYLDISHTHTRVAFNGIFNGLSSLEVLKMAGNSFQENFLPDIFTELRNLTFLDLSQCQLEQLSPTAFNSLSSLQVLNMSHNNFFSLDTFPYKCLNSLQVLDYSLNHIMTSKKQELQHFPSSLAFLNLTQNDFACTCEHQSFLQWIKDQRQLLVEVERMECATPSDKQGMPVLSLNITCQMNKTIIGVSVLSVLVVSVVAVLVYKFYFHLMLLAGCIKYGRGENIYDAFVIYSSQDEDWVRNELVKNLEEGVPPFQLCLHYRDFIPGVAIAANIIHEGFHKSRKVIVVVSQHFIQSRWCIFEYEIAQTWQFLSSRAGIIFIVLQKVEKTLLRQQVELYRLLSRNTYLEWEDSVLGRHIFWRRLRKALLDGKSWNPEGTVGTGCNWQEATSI

Q: For “TLR4 (from UniProt O00206 24-839) (receptor)”, which binding [1] is on record?
A: binds

B1: MD-2 (protein, UniProt Q9Y6Y9 19-160)
chain: QKQYWVCNSSDASISYTYCDKMQYPISINVNPCIELKRSKGLLHIFYIPRRDLKQLYFNLYITVNTMNLPKRKEVICRGSDDDYSFCRALKGETVNTTISFSFKGIKFSKGKYKCVVEAISGSPEEMLFCLEFVILHQPNSN
Q: Which binding [2] does the source give for B1 here?
A: binds

B2: CD14 (protein, UniProt P08571 20-345)
chain: TTPEPCELDDEDFRCVCNFSEPQPDWSEAFQCVSAVEVEIHAGGLNLEPFLKRVDADADPRQYADTVKALRVRRLTVGAAQVPAQLLVGALRVLAYSRLKELTLEDLKITGTMPPLPLEATGLALSSLRLRNVSWATGRSWLAELQQWLKPGLKVLSIAQAHSPAFSCEQVRAFPALTSLDLSDNPGLGERGLMAALCPHKFPAIQNLALRNTGMETPTGVCAALAAAGVQPHSLDLSHNSLRATVNPSAPRCMWSSALNSLNLSFAGLEQVPKGLPAKLRVLDLSCNRLNRAPQPDELPEVDNLTLDGNPFLVPGTALPHEGSMN
Q: For B2, which binding [2] is on record?
A: no binding
